According to patent US20180148452A1, “TOLL-LIKE RECEPTOR-7 AGONIST” (MEDSHINE DISCOVERY INC., priority 2014, published 2018):
Where a name gives a salt, the structure may show the parent alone. Some of these results come from one statement about several compounds together.

Test system: human Peripheral Blood Mononuclear Cell (PBMC)
Assay: PBMC assay: cytokine (IFN-α, TNF-α) stimulation at 24 hrs
Assay type: cell-based
Conditions: lowest concentration giving cytokine level at least 3 folds over lowest detection limit

CCCCOc1nc(N)c2[nH]c(C#N)c(CCCCCN3CCCCC3)c2n1 [Example 1, 4-Amino-2-butoxy-7-(5-(piperidin-1-yl)pentyl)-5H-pyrrolo[3,2-d]pyrimidine-6-carbonitrile formate]
IFN-α MEC: ≤ 1 pM | TNF-α MEC: ≥ 1 nM
